# Reference: PubChem BioAssay AID588590 (National Center for Advancing Translational Sciences (NCATS), 2011)
# Sequences of proteins named here, by UniProt entry; tags and fusion partners are left off. A change or cut given only in a name is not applied to a line headed by its entry.
# UniProt Q9UNA4: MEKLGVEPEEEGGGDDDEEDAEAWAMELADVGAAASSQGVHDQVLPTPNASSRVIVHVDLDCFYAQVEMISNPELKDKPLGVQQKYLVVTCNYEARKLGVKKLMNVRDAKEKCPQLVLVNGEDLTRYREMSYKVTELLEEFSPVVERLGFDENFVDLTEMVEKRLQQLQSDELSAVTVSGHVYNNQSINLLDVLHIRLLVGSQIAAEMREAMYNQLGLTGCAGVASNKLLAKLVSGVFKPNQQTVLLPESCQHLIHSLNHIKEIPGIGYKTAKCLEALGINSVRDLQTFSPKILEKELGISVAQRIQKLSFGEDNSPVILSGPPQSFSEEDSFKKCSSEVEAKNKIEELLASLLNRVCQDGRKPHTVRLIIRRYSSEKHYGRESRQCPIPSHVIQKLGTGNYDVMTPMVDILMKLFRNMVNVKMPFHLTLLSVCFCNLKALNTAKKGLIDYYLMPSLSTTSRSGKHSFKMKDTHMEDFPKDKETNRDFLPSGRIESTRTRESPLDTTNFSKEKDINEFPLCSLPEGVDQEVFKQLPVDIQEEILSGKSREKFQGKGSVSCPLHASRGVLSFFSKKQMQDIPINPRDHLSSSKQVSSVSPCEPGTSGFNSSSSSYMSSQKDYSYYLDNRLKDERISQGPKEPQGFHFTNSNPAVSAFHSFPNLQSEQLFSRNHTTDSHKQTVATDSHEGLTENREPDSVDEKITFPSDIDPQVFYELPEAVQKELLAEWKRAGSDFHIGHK
# Hit rate of the full screen: of about 390,000 compounds, about 4,000 (1%) were called active. Inconclusive results, whose numbers are uncertain, are shown with a selection of clear calls. The call rests on the fitted dose curve; in most records, active means well fitted inhibition curve with a large enough effect; inconclusive means small, poorly fitted or top-dose-only effect, or another doubt; inactive means no such curve, though single readings can be large or run the other way. Potencies beside an inconclusive call are fits to weak or partial responses and may not hold up.
# Biological target: DNA polymerase iota (Homo sapiens) (UniProt Q9UNA4)
# Assay: qHTS for Inhibitors of Polymerase Iota
# Conditions: Pol iota fluorescent replication assay, 10 min; series mostly up to 115 µM
# How it was run: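 Pol iota at 10 nM preincubated 15 min with compounds at room temperature; reaction started with fluorescent substrate, 50 nM final. Fluorescence read kinetically at 0 and 10 min; buffer-only wells as negative control.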
# Potency means the concentration at half of the fitted maximal effect.
row,SMILES,Potency
1,COC(=O)N1C(=O)[C@@](c2ccccc2)(C2CCCCC2)N1C(=O)OC,"inconclusive: 39.8 µM [inhibitor, single point]"
2,COCCN(C(=O)c1ccccc1F)c1nnc(-c2ccc(OC)cc2)s1,inactive
3,Cc1ccc(C)c(N2CCN(C(=O)c3cnn(-c4ccccc4Cl)c3C3CCN(C(=O)OC(C)(C)C)CC3)CC2)c1,inactive
4,O=C(c1ccccc1)c1nn(-c2ccc(Cl)cc2)c(=O)cc1C(F)(F)F,"inconclusive: 100 µM [inhibitor, partial curve, poor fit]"
5,Cc1ccc(C(=O)OCC(=O)c2c[nH]c3ccccc23)cc1S(=O)(=O)N1CCCCC1,"inconclusive: 56.2 µM [inhibitor, partial curve, poor fit]"
6,CCN(CC)c1nc(N)c2c(N)nc3c(c2c1C#N)CC(c1ccccc1)O3 (stereo not given),"inconclusive: 39.8 µM [inhibitor, single point]"
7,O=C(COC(=O)c1cccc(S(=O)(=O)N2CCN(c3ccccc3)CC2)c1)NCc1ccco1,"inconclusive: 20 µM [inhibitor, full curve, poor fit]"
8,CCc1ccc(NC(=O)CCCN2C(=O)C3CC=CCC3C2=O)cc1 (stereo not given),"inconclusive: 100 µM [inhibitor, single point]"
9,O=C(/C=C/c1ccc([N+](=O)[O-])cc1)NCc1ccc2c(c1)OCO2,"inconclusive: 89.1 µM [inhibitor, single point]"
10,C=Cc1ccc(CSc2cc(C)nc3nc(C)nn23)cc1,"inconclusive: 31.6 µM [inhibitor, single point]"
11,CCCCOC(=O)CCc1nc2ccccc2[nH]1,"inconclusive: 56.2 µM [inhibitor, single point]"
12,CC(C)NC(=O)N(C)C[C@H]1Oc2c(NS(=O)(=O)c3cccs3)cccc2C(=O)N([C@H](C)CO)C[C@@H]1C,"inconclusive: 35.5 µM [inhibitor, partial curve, poor fit]"
13,O=C(O)c1nn(-c2cccc(C(F)(F)F)c2)ccc1=O,"inconclusive: 89.1 µM [inhibitor, single point]"
14,COc1ccc(CCNc2c3ccccc3nc3ccccc23)cc1OC,"inconclusive: 20 µM [inhibitor, full curve, poor fit]"
15,CCN(CC)c1ccc(/C=C2/C(=O)ON=C2C)cc1,"inconclusive: 35.5 µM [inhibitor, partial curve, poor fit]"
16,Cc1ccc(/C=C(\C#N)c2nc3ccccc3c(=O)[nH]2)cc1,"inconclusive: 89.1 µM [inhibitor, single point]"
17,CCC1(CC)Cc2ccccc2-c2nc(CN3CCOCC3)[nH]c(=O)c21,"inconclusive: 28.2 µM [inhibitor, single point]"
18,O=C(Nc1nnc(S(=O)(=O)N2CCc3ccccc32)s1)c1cccc(Cl)c1,inactive
19,CSc1nc(SCC(=O)O)c2sc3nc(-c4ccccc4)c4c(c3c2n1)CCC4,"inconclusive: 50.1 µM [inhibitor, partial curve, poor fit]"
20,O=C(CN(c1ccccc1)S(=O)(=O)c1ccccc1)NCCSCc1ccco1,"inconclusive: 56.2 µM [inhibitor, partial curve, poor fit]"

row,SMILES,Potency
1,COc1cc(/C=C2/C(C)=C(C#N)c3nc(N)c(C#N)c(C)c32)ccc1OCC(=O)O,"inconclusive: 22.4 µM [inhibitor, full curve, poor fit]"
2,CCOc1ccc2nc(SCC(=O)NC3CCS(=O)(=O)C3)[nH]c2c1 (stereo not given),"inconclusive: 2.82 µM [inhibitor, partial curve, poor fit]"
3,NNC(=O)c1cc(O)c(O)c(O)c1,"inconclusive: 25.1 µM [inhibitor, full curve, poor fit]"
4,CS(=O)(=O)NCCSCc1ccco1,"inconclusive: 44.7 µM [inhibitor, partial curve, poor fit]"
5,O=C(Cn1cc(SCc2c(F)cccc2Cl)c2ccccc21)N1CCCC1,inactive
6,O=C(O)c1cccc(Nc2nc(N3CCOCC3)nc(N3CCOCC3)n2)c1,"inconclusive: 12.6 µM [inhibitor, full curve, poor fit]"
7,COc1cccc(CNC(=O)C(C)n2c(=O)cc(-c3ccccc3)c3c(C)nn(C)c32)c1 (stereo not given),inactive
8,Cc1nc2ccn(Cc3ccco3)c(=O)c2cc1C(=O)N1CCN(c2ccc(F)cc2)CC1,inactive
9,C#CCOCCOCCOCCNc1nc(N2CCN(C(=O)[C@H](C)n3cc(CCC(=O)O)nn3)CC2)nc(N2CCN(C(=O)[C@H](C)n3cc(CCC(=O)O)nn3)CC2)n1,"inconclusive: 20 µM [inhibitor, single point]"
10,CN(C)c1ccc(C(=O)Oc2cc(O/N=[N+](\[O-])N(C)C)c([N+](=O)[O-])cc2[N+](=O)[O-])cc1,inactive
11,COc1cc2ccccc2cc1C(=O)NC(=S)Nc1ccc(C(=O)O)cc1,inactive
12,COC(=O)c1ccsc1NC(=O)CN1CCN(c2ccc(F)cc2)CC1,"inconclusive: 22.4 µM [inhibitor, partial curve, poor fit]"
13,CC(C)c1ccc(NC(=O)N2c3ccccc3Sc3ccccc32)cc1,"inconclusive: 89.1 µM [inhibitor, single point]"
14,Cc1cc(C)c(NC(=O)Cn2nnc(S(=O)(=O)c3ccc(C)c(C)c3)c2N)c(C)c1,active: 79.4 µM
15,CCOC(=O)C1=C(C2=CCCCC2)c2ccc(OC)cc2N(S(=O)(=O)C(F)(F)F)C1C(=O)OCC (stereo not given),"inconclusive: 3.16 µM [inhibitor, partial curve, poor fit]"
16,CCOC(=O)c1ccc(NCc2cccnc2)cc1,inactive
17,N#Cc1c(-c2ccco2)cc(-c2ccccn2)nc1N,"inconclusive: 39.8 µM [inhibitor, partial curve, poor fit]"
18,COc1ccc2c(c1)c(=O)c(C(=O)c1ccc(F)cc1)cn2CC(=O)Nc1ccc2c(c1)OCO2,inactive
19,Cc1ccccc1NC(=O)Cn1cc(C(=O)C2CC2)c2ccccc21,"inconclusive: 79.4 µM [inhibitor, partial curve]"
20,C=CCNC(=O)c1cc2sccc2n1C,"inconclusive: 25.1 µM [inhibitor, single point]"

row,SMILES,Potency
1,O=C(O)c1c(Br)c(Br)c(Br)c(Br)c1C1c2ccc(O)cc2Oc2cc(O)ccc21,"inconclusive: 44.7 µM [inhibitor, partial curve, poor fit]"
2,COc1cccc(/C=C2/CCC(CN(C)C)C2=O)c1 (stereo not given),"inconclusive: 17.8 µM [inhibitor, partial curve, poor fit]"
3,NC(=O)c1c(NC(=O)c2cc3ccccc3o2)sc2c1CCC2,"inconclusive: 44.7 µM [inhibitor, partial curve, poor fit]"
4,Cc1cc(Br)ccc1NC(=O)c1sc2nc3n(c(=O)c2c1C)CCCC3,inactive
5,CCS(=O)(=O)C1=NSC2=NC(=O)/C(=C\c3ccc(OC(=O)c4ccco4)c(OC)c3)C(=N)N21,"inconclusive: 31.6 µM [inhibitor, partial curve, poor fit]"
6,CC(=O)c1sc(-c2cccc(Cl)c2)nc1C,inactive
7,CC(C)Oc1ccc(C(=O)NC(C)(C)CO)cc1,"inconclusive: 0.631 µM [inhibitor, full curve, poor fit]"
8,O=C(O)c1cccc(N2C(=O)/C(=C/c3ccc([N+](=O)[O-])cc3)C=C2c2ccccc2)c1,"inconclusive: 15.8 µM [inhibitor, partial curve, poor fit]"
9,FC(F)(F)c1cccc(NC(=S)NNC(=S)NCc2ccccc2)c1,"inconclusive: 56.2 µM [inhibitor, full curve, poor fit]"
10,N#Cc1c(N)n(CCOC(=O)c2ccc(Cl)cc2)c2nc3ccccc3nc12,"inconclusive: 39.8 µM [inhibitor, single point]"
11,Cc1ccc(Cn2nnc3c(=O)[nH]c(C4CCN(S(=O)(=O)c5ccccc5F)CC4)nc32)cc1,"inconclusive: 39.8 µM [inhibitor, partial curve, poor fit]"
12,CCN1C(=O)[C@H]2[C@H]3CN=C(SCC4CC4)N3[C@@](CC)(C(=O)OC)[C@H]2C1=O,"inconclusive: 14.1 µM [inhibitor, partial curve, poor fit]"
13,O=C(c1ccc2c(c1)CCN2S(=O)(=O)c1ccc(Cl)cc1)N1CCN(c2ccc(F)cc2)CC1,inactive
14,CCCc1c(C(=O)N/N=C(\C)CCc2ccc(OC)cc2)nnn1-c1nonc1N,"inconclusive: 89.1 µM [inhibitor, single point]"
15,CC(C(=O)O)N(C(=O)c1ccccc1)c1ccc(F)cc1 (stereo not given),"inconclusive: 100 µM [inhibitor, single point]"
16,C[C@H](CO)N1C[C@H](C)[C@@H](CN(C)S(=O)(=O)c2cn(C)cn2)Oc2c(NS(=O)(=O)c3cccs3)cccc2C1=O,inactive
17,Cc1nc(NCc2ccc3c(c2)OCO3)c2oc3ccccc3c2n1,"inconclusive: 28.2 µM [inhibitor, full curve]"
18,CC1Cc2ccccc2N1C(=O)COC(=O)c1ccc(Cl)c(S(=O)(=O)N2CCOCC2)c1 (stereo not given),"inconclusive: 35.5 µM [inhibitor, partial curve, poor fit]"
19,C=CCN1C(=O)NC(c2ccccc2)(C(F)(F)F)S/C1=C(\C#N)c1nnc(N2CCOCC2)n1-c1ccccc1 (stereo not given),"inconclusive: 22.4 µM [inhibitor, partial curve, poor fit]"
20,CC(=O)O[C@]1(C(C)=O)CC[C@H]2[C@@H]3C[C@H](C)C4=CC(=O)CC[C@]4(C)[C@H]3CC[C@@]21C,"inconclusive: 7.08 µM [inhibitor, full curve, poor fit]"

# Another view of part of the listing above:
row | SMILES | Potency
7 | COc1cccc(CNC(=O)C(C)n2c(=O)cc(-c3ccccc3)c3c(C)nn(C)c32)c1 (stereo not given) | inactive
15 | CCOC(=O)C1=C(C2=CCCCC2)c2ccc(OC)cc2N(S(=O)(=O)C(F)(F)F)C1C(=O)OCC (stereo not given) | inconclusive: 3.16 µM [inhibitor, partial curve, poor fit]
11 | Cc1ccc(Cn2nnc3c(=O)[nH]c(C4CCN(S(=O)(=O)c5ccccc5F)CC4)nc32)cc1 | inconclusive: 39.8 µM [inhibitor, partial curve, poor fit]
